Assay [1] concerns the target T1, CPL2, full-length, yeast two-hybrid fusion (Arabidopsis) (UniProt Q5YDB5).
T1 sequence: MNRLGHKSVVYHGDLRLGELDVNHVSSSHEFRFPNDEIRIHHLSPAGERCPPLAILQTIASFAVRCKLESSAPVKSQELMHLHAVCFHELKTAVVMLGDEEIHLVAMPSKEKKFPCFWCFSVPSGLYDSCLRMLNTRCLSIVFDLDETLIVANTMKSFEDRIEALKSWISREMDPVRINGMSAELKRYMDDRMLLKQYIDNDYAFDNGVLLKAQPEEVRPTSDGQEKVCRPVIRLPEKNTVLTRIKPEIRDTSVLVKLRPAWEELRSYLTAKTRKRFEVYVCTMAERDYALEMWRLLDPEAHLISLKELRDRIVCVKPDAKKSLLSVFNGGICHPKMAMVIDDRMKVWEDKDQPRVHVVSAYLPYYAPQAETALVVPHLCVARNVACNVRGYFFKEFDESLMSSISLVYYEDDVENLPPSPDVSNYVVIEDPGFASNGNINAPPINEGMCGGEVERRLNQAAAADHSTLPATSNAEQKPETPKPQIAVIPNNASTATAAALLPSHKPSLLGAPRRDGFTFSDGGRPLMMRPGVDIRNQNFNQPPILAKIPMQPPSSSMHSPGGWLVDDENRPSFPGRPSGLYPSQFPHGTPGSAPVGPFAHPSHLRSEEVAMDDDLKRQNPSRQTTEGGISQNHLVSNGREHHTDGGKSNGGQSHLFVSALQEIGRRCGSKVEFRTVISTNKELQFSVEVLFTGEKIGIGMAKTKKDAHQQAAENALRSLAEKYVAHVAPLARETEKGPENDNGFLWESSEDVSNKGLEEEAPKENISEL
In words: two-hybrid; yeast two-hybrid, AD (pGADT7) and BD (pGBKT7) constructs, growth on SD -LW or -LWH plates, 30 °C, 3 d.

The target of assay [2] is T2, AIPP2, full-length, yeast two-hybrid fusion (Arabidopsis) (UniProt F4IYH6).
T2 sequence: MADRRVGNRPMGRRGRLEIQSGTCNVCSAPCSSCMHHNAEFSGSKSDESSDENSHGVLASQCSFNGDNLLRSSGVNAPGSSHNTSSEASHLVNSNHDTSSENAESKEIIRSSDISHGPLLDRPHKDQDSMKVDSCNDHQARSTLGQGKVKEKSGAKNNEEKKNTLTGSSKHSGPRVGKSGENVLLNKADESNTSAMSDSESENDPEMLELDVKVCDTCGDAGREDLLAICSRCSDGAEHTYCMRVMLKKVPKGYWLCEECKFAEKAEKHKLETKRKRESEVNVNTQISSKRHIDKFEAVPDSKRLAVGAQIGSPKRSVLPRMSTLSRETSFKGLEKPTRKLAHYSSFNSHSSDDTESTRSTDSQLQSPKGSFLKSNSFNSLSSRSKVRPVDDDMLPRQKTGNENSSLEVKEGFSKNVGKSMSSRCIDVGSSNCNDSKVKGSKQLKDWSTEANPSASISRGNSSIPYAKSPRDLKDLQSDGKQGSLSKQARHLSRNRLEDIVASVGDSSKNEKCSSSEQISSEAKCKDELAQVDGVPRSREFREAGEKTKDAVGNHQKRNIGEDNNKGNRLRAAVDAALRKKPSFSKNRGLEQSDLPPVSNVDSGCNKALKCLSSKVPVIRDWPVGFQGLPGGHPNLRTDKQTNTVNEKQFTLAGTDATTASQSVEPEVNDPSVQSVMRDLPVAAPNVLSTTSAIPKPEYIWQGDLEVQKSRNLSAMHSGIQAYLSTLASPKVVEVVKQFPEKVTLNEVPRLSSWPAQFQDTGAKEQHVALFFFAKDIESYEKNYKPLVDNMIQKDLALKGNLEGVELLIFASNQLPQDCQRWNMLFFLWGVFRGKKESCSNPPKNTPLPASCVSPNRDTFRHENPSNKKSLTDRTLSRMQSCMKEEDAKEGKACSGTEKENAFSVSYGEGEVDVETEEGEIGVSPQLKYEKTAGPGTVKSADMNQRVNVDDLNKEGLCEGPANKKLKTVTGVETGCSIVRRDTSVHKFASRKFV
The assay is described as above.

Assay [3] deals with T3, AIPP3, full-length, yeast two-hybrid fusion (Arabidopsis) (UniProt Q8RXT5).
T3 sequence: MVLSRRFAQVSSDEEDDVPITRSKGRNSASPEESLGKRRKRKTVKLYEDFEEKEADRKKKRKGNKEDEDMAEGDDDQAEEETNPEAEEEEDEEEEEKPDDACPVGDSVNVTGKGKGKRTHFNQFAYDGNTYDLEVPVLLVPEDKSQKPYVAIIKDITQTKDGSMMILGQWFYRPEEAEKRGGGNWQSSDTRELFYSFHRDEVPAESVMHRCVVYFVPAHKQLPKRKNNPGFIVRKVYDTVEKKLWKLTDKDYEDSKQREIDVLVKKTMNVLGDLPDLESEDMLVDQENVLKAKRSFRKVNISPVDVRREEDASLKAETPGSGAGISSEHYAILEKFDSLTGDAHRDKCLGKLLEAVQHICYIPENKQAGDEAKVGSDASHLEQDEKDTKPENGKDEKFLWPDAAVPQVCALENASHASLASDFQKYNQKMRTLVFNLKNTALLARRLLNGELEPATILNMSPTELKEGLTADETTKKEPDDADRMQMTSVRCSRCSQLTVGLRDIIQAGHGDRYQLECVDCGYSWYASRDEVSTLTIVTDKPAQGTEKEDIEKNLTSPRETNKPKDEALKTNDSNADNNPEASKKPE
The assay is described as above.

For assay [4], the target named is T4, AIPP2 fused with split luciferase (Arabidopsis) (UniProt F4IYH6).
T4 sequence: T2 sequence
In words: split reporter; split luciferase, constructs co-infiltrated into Nicotiana benthamiana leaves, luciferase activity 2 days after infiltration, CCD camera.

Assay [5] has as its target T5, AIPP3 fused with split luciferase (Arabidopsis) (UniProt Q8RXT5).
T5 sequence: T3 sequence
Described as above.

The target in assay [6] is T6, CPL2 fused with split luciferase (Arabidopsis) (UniProt Q5YDB5).
T6 sequence: T1 sequence
Described as above.

No constants are given. Whether binding was seen depends on the method and setting. For some assays here: Binding seen in cells or lysates may run through a third protein. Some binding calls cover weakened binding; strength is not graded here. Where a sequence is shown, tags or fusion partners need not be part of it.

B1: PAIPP2, full-length, yeast two-hybrid fusion (protein, UniProt F4KE59 1-1311)
chain: MADRRVGKRQMGQRGFSKVESGTCNVCSAPCSSCMHRNVGFTGSKLDESSDENCHGVVGSQCSVNEDDLLPSSMVNAHKSLNNTASEASNLVNSSHDALSENAESKETIRCSGISDDSGAAAMTSKPSLSGSRMKHKVSASANMLDQSSNCIEDQEDGILSADRAKQLKSGCSNNEIGNKDLADGSALNSDPIPGGSRKDEVKLESLQNPSSNHDDRVSSEKGNFKEKSRPGGNKERQEPSVEGSTRSGENRKDGKSSKSSSSNSSAVSESESDDSEMVEHDVKVCDICGDAGREDLLAICSGCSDGAEHTYCMREMLDEVPEGDWLCEECAEEAEKQKQEAKRKRETEVTFNTYSSGKRHADKIEAAPDAKRQVVEASTGSPKKSILPRVGALSRETSFKGLDRLRGKLNHQTSFSDDTESARSAGSQLQPPKGAFLKSSSFNCSSSKPKVQLMDDAIHPRQKTGKEDTALDLKVGGFRNVGKSMPSRTTDAGNSGGSDSQAKMLGSKVYHSQEGKSLKQVKDRNREANASASSIDQKLKSRGNSSVSHANNNRDLKGLQSDGKRGNLTKQVSNLSRNRLENSVVSGGDISTNEKCSASEQSSSQADCKDELPSTSCTGEGMPNHGTVALQDGLPRSRVPREVGKKSKEAFSKRQRSSLLAGAKGLPSSQKGGQTAESSDTSGVSDSDLSTTKNVKEDLNKGNRLRAAVDAALRKKPSFGKNRVLEQSDASLVANVDSSSEKTLRNQLPSKMHKNHVSHEGLQGGHPILWPTSDPYKQTIVTNEKQLIFPGADTIPSRLVEPEVSFPAVKPVMRDLPLVPSPVMLRSSAIPDHEFIWQGDLEVRKIINQSAMHSGIQAHLSTLASPRVAEVVNKFPETFSLNEVPRKSTWPTQFEKLGTKEAHIALFFFAKDTESYERNYKPLVDNMIKNDLALKGNLDNVDLLIFASNQLPSNCQRWNMLYFLWGVFQGRKETNPQKNTSLPTSNVLPRDRDPKELCQTSSPSKHLEKGSSLRESSSNGIETRNGTDARSHENPNNRESSIERSPSKKEDIALKVEEAGVNHIPPQVTGSNSGDSLVRKVQKVEEQELGGRKDLPLTVMGSGIQSHGQDNPLEKDLNSSQASHRKRPLWELSNPANENSSAINQKVELNNDGLCEGSPNKKLKTENGSSSLCRDTSGHDSGIMKKSPKVVFPLDLNDDSEMVDNLSPLGNDENNNNRRLISGTVPNLELALGAEETTEATMGLLPFLSRSSNSGEQSNNSMNKEKQKADEEEEDDAEVAASLSLSLSFPGTEERKNVNTPLFLFRDLPR
In the case of B1, the results for the binding result in assay [1], in assay [2] and in assay [3] were “binds”, “no binding” and “binds”, respectively.

B2: PAIPP2 fused with split luciferase (protein, UniProt F4KE59 1-1311)
chain: B1 chain
For the molecule B2, the figures for the binding result in assay [4], in assay [5] and in assay [6] were “no binding”, “binds” and “binds”, respectively.

B3: AIPP2, full-length, yeast two-hybrid fusion (protein, UniProt F4IYH6 1-994)
chain: T2 sequence
Consider B3, for which the binding entry in assay [1] and in assay [3] was “binds” each time.

The values are drawn from paper PMC7718874, “Coupling of H3K27me3 recognition with transcriptional repression through the BAH-PHD-CPL2 complex in Arabidopsis” (Nature Communications, 2020).
